Laboratory results taken from patent US20230087994A1, “TARGETED BIFUNCTIONAL DEGRADERS” (YALE UNIVERSITY, priority 2019, published 2023).
At least one compound was matched to its structure with a doubt left. Numbered stars: 1 amine (or outer) side, 2 acyl side, 3 side chain; on linkers, the order of the positions; unused ones are H or OH. Peptide text beside a SMILES is read from it. CO = O=C([*:1])[*:2]

Tested on: HepG2 cells
Test: Degradation of α-DNP antibody endocytosed via DNP-AF3 in HepG2 cells (PAGE, 50 kDa/25 kDa band ratio) and effect of protease inhibitors
Format: cell-based, human
From the text: First, reducing conditions were used to visualize antibody degradation via PAGE gel.

`CC(C)[C@H](NC(=O)[C@H](CCCNC(=N)N)NC(=O)N[C@@H](Cc1ccccc1)C(=O)O)C(=O)N[C@H](C=O)CCCNC(=N)N` [Antipain] ({Phe-CO}-Arg-Val-Arg-aldehyde) was tested, and the “inhibition of degradation of α-DNP antibody, repeat with selected conditions” value (80 μM leupeptin, 10 and 100 μM ALLN, 15 μM pepstatin, FIG. 118, leupeptin not significant (p=0.0504)) was “inhibited degradation”, the “inhibition of α-DNP antibody degradation, triplicate” value (12 hours, FIG. 117) was “inhibit α-DNP antibody degradation at all concentrations tested” and the “inhibition of α-DNP antibody degradation, initial screen” value (single replicate, FIG. 116, leupeptin 20 and 80, E64 50 and 10 μM, antipain 50 and 100 μM, aprotinin 400 or 800 nM, PMSF 100 or 500 μM, AEBSF 10 μM, ALLN 10 μM) was “effective”.
